Source: patent US20230357857
The comparison behind a weaker result is the experiment's own reference, which may not be listed here. Construct, isoform or probe ends are uncertain for at least one entry.

The chains behind the UniProt entries cited, without tags or fusion partners.
UniProt P19821, whole entry: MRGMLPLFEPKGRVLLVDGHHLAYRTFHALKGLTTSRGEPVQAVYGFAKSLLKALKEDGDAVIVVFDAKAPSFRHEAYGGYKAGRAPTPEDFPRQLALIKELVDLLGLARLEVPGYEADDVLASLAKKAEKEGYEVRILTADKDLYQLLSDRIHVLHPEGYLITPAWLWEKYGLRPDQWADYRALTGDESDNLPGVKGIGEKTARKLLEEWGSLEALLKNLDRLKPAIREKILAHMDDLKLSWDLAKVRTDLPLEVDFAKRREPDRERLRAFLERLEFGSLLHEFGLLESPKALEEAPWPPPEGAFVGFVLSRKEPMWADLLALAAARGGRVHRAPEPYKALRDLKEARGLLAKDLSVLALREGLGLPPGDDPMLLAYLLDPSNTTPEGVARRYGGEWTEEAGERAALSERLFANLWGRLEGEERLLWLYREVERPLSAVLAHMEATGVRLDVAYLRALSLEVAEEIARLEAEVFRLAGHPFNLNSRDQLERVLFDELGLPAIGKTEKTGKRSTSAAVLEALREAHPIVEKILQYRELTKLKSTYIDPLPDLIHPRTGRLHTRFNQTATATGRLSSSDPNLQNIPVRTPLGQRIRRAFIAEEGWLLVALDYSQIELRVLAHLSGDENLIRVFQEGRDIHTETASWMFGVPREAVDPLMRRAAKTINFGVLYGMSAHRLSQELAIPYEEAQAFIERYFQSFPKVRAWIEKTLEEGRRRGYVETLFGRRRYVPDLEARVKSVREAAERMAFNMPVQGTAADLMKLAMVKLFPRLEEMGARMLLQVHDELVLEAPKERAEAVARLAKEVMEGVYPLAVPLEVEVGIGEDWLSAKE

Biological target: Taq DNA polymerase (UniProt P19821)
Test: inhibition of the protein
Details: purified recombinant protein, protein details: Promega, dose not given here
[1] = much lower signal with single-base mismatch targets than with matched target
[2] = 18 bp duplex needed without stabilizer

GTTGCGCAGCCTTTATCAATGTACAGTATGATAA / AGGCTGCGCAACTGTTGG [Low Tm Aptamer + target-specific strand]
functional effect of the aptamer (stable at 20 C, quickly destabilized at higher temperature): active

TGCCTATCAGTACGCCAATGTACAGTATTGGCG / TACTGATAGGCAGTCTGG [Aptamer (long target) + long target specific strand (C)]
functional effect of the aptamer [1]: active

AACAGTTGCGCAGCCTCAATGTACAGTATTG / AGGCTGCGCAACTGTTGG
functional effect of the aptamer (enzyme released by long but not short targets): active

GTTGCGCAGCCTACGCCAATGTACAGTATTGGCGT / AGGCTGCGCAACTGTTGG
functional effect of the aptamer (activated by short and long targets): active

TGCCTATCAGTACGCCAATGTACAGTATTGGCG / TACTGATAGGCAGTCTGT [Aptamer (long target) + long target specific strand (A)]
functional effect of the aptamer [1]: active

GTTGCGCAGCCTCAATGTACAGTATTG / AGGCTGCGCAACTGTTGGGAAGGGCGATCGGTGCGGGCCT [Aptamer, no stabilization domain, 12 bp duplex]
functional effect of the aptamer [2]: less active

GTTGCGCAGCCTCGACCAATGTACAGTATTGGTCG / AGGCTGCGCAACTGTTGG [Medium Tm Aptamer + target-specific strand]
functional effect of the aptamer (more stable to increased temperature than low Tm): active

CAGCCTCAATGTACAGTATTG / AGGCTGCGCAACTGTTGGGAAGGGCGATCGGTGCGGGCCT [Aptamer, no stabilization domain, 6 bp duplex]
functional effect of the aptamer [2]: less active

TGCCTATCAGTACGCCAATGTACAGTATTGGCG / TACTGATAGGCAGTCTGA [Aptamer (long target) + long target specific strand (T)]
functional effect of the aptamer [1]: active

TGCCTATCAGTACGCCAATGTACAGTATTGGCG / TACTGATAGGCAGTCTGC [Aptamer (long target) + long target specific strand (G)]
functional effect of the aptamer [1]: active

CCAACAGTTGCGCAGCCTCAATGTACAGTATTG / AGGCTGCGCAACTGTTGGGAAGGGCGATCGGTGCGGGCCT [Aptamer, no stabilization domain, 18 bp duplex]
functional effect of the aptamer (stable enzyme-aptamer complex): active

AGTAGATTGAATCGCCAATGTACAGTATTGGCG / ATTCAATCTACTGACTCA [Aptamer (short target) + short target specific strand (T)]
functional effect of the aptamer [1]: active

GTTGCGCAGCCTACTGGCCAATGTACAGTATTGGCCAGT / AGGCTGCGCAACTGTTGGGAAGGGCGATCGGTGCGGGCCT [Aptamer, 6 bp stabilization domain, 12 bp duplex]
functional effect of the aptamer (stable complex with only 12 bp duplex): active

GTTGCGCAGCCTGACACGACCAATGTACAGTATTGGTCGTGTC / AGGCTGCGCAACTGTTGG [High Tm Aptamer + target-specific strand]
functional effect of the aptamer (fully stable even at 35 C): active

AGTAGATTGAATCGCCAATGTACAGTATTGGCG / ATTCAATCTACTGGCTCA [Aptamer (short target) + short target specific strand (C)]
functional effect of the aptamer [1]: active

AGTAGATTGAATCGCCAATGTACAGTATTGGCG / ATTCAATCTACTGTCTCA [Aptamer (short target) + short target specific strand (A)]
functional effect of the aptamer [1]: active

AGTAGATTGAATCGCCAATGTACAGTATTGGCG / ATTCAATCTACTGCCTCA [Aptamer (short target) + short target specific strand (G)]
functional effect of the aptamer [1]: active

GTTGCGCAGCCTCAATGTACAGTATTG / AGGCTGCGCAACTGTTGG
functional effect of the aptamer (unstable, cannot fully silence enzyme, listing SEQ 1 is shorter than printed Table 1 sequence): less active
